A short description of series [1]: general procedure: Boc solid-phase peptide synthesis; methyl-benzhydrylamine resin; DCC; Asn, Gln and Arg as HOBt esters. Conditions: whole synthesis, scale about 0.1 mmol.
Series [2] can be described thus: general procedure: Boc solid-phase peptide synthesis; MBHA resin (0.73 mmoles/g); DCC; Asn, Gln and Arg as HOBt esters. The note with it: whole synthesis, HPLC and CZE, scale of the general procedure about 0.1 mmol.

The text below walks through data of patent US6682740B1 (Yeda Research and Development Co. Ltd., priority 1997, dated 2004).

Plain letter strings leave the end groups untold.

Sequence CNYITELRRQHARASHLGLAR yielded a crude mass in series [1] of 190 mg. Besides, the “final HPLC purity” value in series [2] is “more than 96%”.
